Data source: PubChem BioAssay AID1671195 (Yale University, 2021)

Aim: 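Regulators of LDL receptor activity judged by labelled LDL uptake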 (primary screen)
Cells: human Huh7 hepatoma cells
Reagent: siRNA pool against human genes, 18 nM
Timing: about 2 to 2.5 days of knockdown, then 8 h LDL uptake
Conditions: DiI-labelled LDL at 30 µg/ml for 8 h, in lipoprotein-deficient serum medium
Read-out: 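Fluorescent LDL signal imaged in cells, scaled to the plate median, robust z-score for each replicate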
Direction: robust z-score: higher = more LDL uptake after knockdown
Call rule: 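Active when two or more replicates show a robust z-score above 2 or below -2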
This is a random part of about 22,000 reagents. Of all reagents, about 1,510 (6.9%) are marked active. 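Active includes knockdowns raising or lowering LDL uptake; positive z-scores mean more uptake, negative mean less.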 Unmarked entries are inactive. Reagents against one gene are numbered here. Reagent sequences are not shown.

After knock-down of LOC400164 (retired record), the screen gave robust z-score, replicate 1 = 1.63; robust z-score, replicate 2 = 1.85; robust z-score, replicate 3 = 1.24.
Depletion of RRAGD (Ras related GTP binding D) resulted in: robust z-score, replicate 1 = -1.07; robust z-score, replicate 2 = 0.106; robust z-score, replicate 3 = -0.603.
APBB1IP scored robust z-score, replicate 1 = 1.37; robust z-score, replicate 2 = 0.653; robust z-score, replicate 3 = 2.76.
Knock-down of PRXL2C (peroxiredoxin like 2C) resulted in: robust z-score, replicate 1 = 0.899; robust z-score, replicate 2 = -0.288; robust z-score, replicate 3 = -0.124.
Silencing of LOC392215 (retired record) came out at: robust z-score, replicate 1 = 0.612; robust z-score, replicate 2 = 0.653; robust z-score, replicate 3 = 0.605.
After knock-down of SPAG9 (sperm associated antigen 9), the screen gave robust z-score, replicate 1 = -0.916; robust z-score, replicate 2 = -0.779; robust z-score, replicate 3 = -0.602.
For BGN (biglycan), the entry reads robust z-score, replicate 1 = -1.23; robust z-score, replicate 2 = -1.11; robust z-score, replicate 3 = 0.827.
For LEPROT (leptin receptor overlapping transcript), the entry reads robust z-score, replicate 1 = 0.263; robust z-score, replicate 2 = 0.196; robust z-score, replicate 3 = -0.208.
After knock-down of RASSF8 (Ras association domain family member 8), the screen gave robust z-score, replicate 1 = -0.605; robust z-score, replicate 2 = -1.35; robust z-score, replicate 3 = 0.561.
LOC401490 (retired record) scored robust z-score, replicate 1 = 1.27; robust z-score, replicate 2 = 0.226; robust z-score, replicate 3 = 0.403.
For ZNF286A (zinc finger protein 286A) the deposit lists robust z-score, replicate 1 = 0.4; robust z-score, replicate 2 = 0.132; robust z-score, replicate 3 = 0.161.
Against ATP6AP1L (ATPase H+ transporting accessory protein 1 like (pseudogene)), the values are robust z-score, replicate 1 = 1.04; robust z-score, replicate 2 = 0.137; robust z-score, replicate 3 = 0.931.
Knock-down of UPK3A (uroplakin 3A) gave: robust z-score, replicate 1 = -1.29; robust z-score, replicate 2 = -0.967; robust z-score, replicate 3 = -0.641.
With knock-down of SMYD5 (SMYD family member 5) the results were robust z-score, replicate 1 = 0.499; robust z-score, replicate 2 = 0.606; robust z-score, replicate 3 = 0.846.
Depletion of SLC16A12 resulted in: robust z-score, replicate 1 = -0.154; robust z-score, replicate 2 = 0.349; robust z-score, replicate 3 = 0.681.
For ECH1 (enoyl-CoA hydratase 1) the deposit lists robust z-score, replicate 1 = 1.05; robust z-score, replicate 2 = 0.458; robust z-score, replicate 3 = 1.34.
After knock-down of IL4R (interleukin 4 receptor), the record shows robust z-score, replicate 1 = 1.7; robust z-score, replicate 2 = 0.696; robust z-score, replicate 3 = 0.93.
CLEC9A (C-type lectin domain containing 9A) gave robust z-score, replicate 1 = -0.781; robust z-score, replicate 2 = -0.698; robust z-score, replicate 3 = -0.505.
With knock-down of TSLIG2 (tRNA splicing ligase complex subunit 2) the results were robust z-score, replicate 1 = -0.877; robust z-score, replicate 2 = -1.1; robust z-score, replicate 3 = -0.95.
After knock-down of LOC401215 (retired record) the results were robust z-score, replicate 1 = -0.11; robust z-score, replicate 2 = -0.12; robust z-score, replicate 3 = -0.395.
TCP10L2 (t-complex 10 like 2 (pseudogene)) showed robust z-score, replicate 1 = 0.953; robust z-score, replicate 2 = 0.503; robust z-score, replicate 3 = 0.825.
CHIA (chitinase acidic) showed robust z-score, replicate 1 = -1.04; robust z-score, replicate 2 = 0.729; robust z-score, replicate 3 = -0.0546.
GRIN2D (glutamate ionotropic receptor NMDA type subunit 2D) showed robust z-score, replicate 1 = -0.476; robust z-score, replicate 2 = -0.852; robust z-score, replicate 3 = -0.194.
Depletion of EGFEM1P (EGF like and EMI domain containing 1, pseudogene) #1 resulted in: robust z-score, replicate 1 = 0.395; robust z-score, replicate 2 = 0.581; robust z-score, replicate 3 = 0.311.
After knock-down of EGFEM1P (EGF like and EMI domain containing 1, pseudogene) #2, the screen gave robust z-score, replicate 1 = -0.541; robust z-score, replicate 2 = -0.0357; robust z-score, replicate 3 = -0.539.
After knock-down of EGFEM1P (EGF like and EMI domain containing 1, pseudogene) #3, the record shows robust z-score, replicate 1 = -0.571; robust z-score, replicate 2 = -0.649; robust z-score, replicate 3 = -0.654.
After knock-down of ZDHHC2 (zDHHC palmitoyltransferase 2), the screen gave robust z-score, replicate 1 = 0.505; robust z-score, replicate 2 = 0.855; robust z-score, replicate 3 = -0.331.
BAX (BCL2 associated X, apoptosis regulator) scored robust z-score, replicate 1 = 0.115; robust z-score, replicate 2 = 0.175; robust z-score, replicate 3 = -0.768.
Depletion of ARHGEF37 (Rho guanine nucleotide exchange factor 37) gave: robust z-score, replicate 1 = -0.929; robust z-score, replicate 2 = -0.863; robust z-score, replicate 3 = -0.897.
After knock-down of IBTK (inhibitor of Bruton tyrosine kinase) the results were robust z-score, replicate 1 = -0.247; robust z-score, replicate 2 = 0.104; robust z-score, replicate 3 = -1.3.

Only “robust z-score, replicate 1”, for 2 of the entries above:
RASSF8 (Ras association domain family member 8)	-0.605
LOC401490 (retired record)	1.27
